Literature values in patent publication US10525103B2, “Combined use of a vector encoding a modified receptor and its exogenous agonist in the treatment of seizures” (UCL BUSINESS LTD, priority 2014, dated 2020).
At least one structure is not confirmed: it was looked up by name or label, or the drawing left a doubt.

Tested on: human muscarinic acetylcholine receptors mutated to DREADDs
Details: cited from earlier work

Cc1cc2c(s1)Nc1ccccc1N=C2N1CCN(C)CC1 [olanzapine]
activation of DREADD receptors: readily activated
